Reference: the supplement of paper PMC12889115
Some of the results follow. These are raw signals, not scaled to a control.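 Primary screen: polymyxin B was added at a level permeabilizing Salmonella outer membranes while sparing inner membranes. DMSO wells, both with and without polymyxin B, established maximum growth. Plate-to-plate variation meant each plate was ranked on its own, and the lowest-OD600 compounds were selected as hits.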

Tested on: Salmonella enterica serovar Typhimurium SL1344
Experiment: bacterial growth OD600 after 18 h with compound and polymyxin B; higher = more bacterial growth (less inhibition)
Settings: 50 µM, Mueller-Hinton broth

Row | SMILES | bacterial growth OD600 (polymyxin B 1 µg/mL) | bacterial growth OD600 (polymyxin B 0.75 µg/mL)
1 | CCCS(=O)(=O)NCc1cccnc1Oc1ccc(F)c(F)c1 | 0.827 | 
2 | O=C(COc1ccccc1)Nc1ccc(N2CCC(NCCCOc3cccnc3)CC2)cc1 |  | 0.875
3 | O=C(c1cn(C2CCCCC2)nn1)N1CCCC(OCc2ccccc2)C1 (stereo unspecified) | 0.639 | 
4 | Fc1ccccc1Cc1noc(CN2CCC(N3CCSCC3)CC2)n1 | 1.05 | 
5 | Cn1nccc1C(=O)NC1CC(C)(C)Cc2nc(N3CCOCC3)ncc21 (stereo unspecified) |  | 0.986
6 | COc1ccc(F)c(CC2(CCC(=O)NC(C3CC3)C3CC3)CCC(=O)N2)c1 (stereo unspecified) |  | 0.737
7 | COc1cccc(CN2CCCC(NCc3nccn3-c3cccc(C)c3)C2)c1 (stereo unspecified) | 0.84 | 
8 | CCOC(=O)C1(Cc2ccc(F)cc2F)CCCN(C(=O)c2sc(C)nc2C)C1 (stereo unspecified) | 0.882 | 
9 | CSCCC(=O)N1CCC(C(=O)Nc2cccc(-c3cccc(Cl)c3)c2)CC1 | 0.012 | 
10 | COc1ccc(CN2CCCC(C(=O)c3cc(C)c(OC)c(C)c3)C2)cc1O (stereo unspecified) | 0.872 | 
11 | O=C1N(Cc2ccc(F)c(F)c2)CCCC1(O)CN1CCOCC1 (stereo unspecified) | 0.961 | 
12 | COC(=O)c1ccccc1C(=O)N1CCCC(N2CCN(c3ccc(F)cc3)CC2)C1 (stereo unspecified) | 0.939 | 
13 | O=C(COc1ccccc1)NC1CC(=O)N(CCc2ccc(F)cc2)C1 (stereo unspecified) | 1.05 | 
14 | C[C@@H]1CN(C2(C(=O)N3CCC(CO)CC3)Cc3ccccc3C2)C[C@H](C)O1 |  | 0.832
15 | Cc1c(-c2ccccc2F)[nH]c2ccc(CNC(=O)CCN3CCCO3)cc12 | 0.016 | 
16 | CCOC(=O)C1(Cc2ccccc2F)CCCN(C(=O)C2=CCCC2)C1 (stereo unspecified) | 0.489 | 

A different layout for some results above:
CCCS(=O)(=O)NCc1cccnc1Oc1ccc(F)c(F)c1
  bacterial growth OD600 (polymyxin B 1 µg/mL): 0.827
COC(=O)c1ccccc1C(=O)N1CCCC(N2CCN(c3ccc(F)cc3)CC2)C1 (stereo unspecified)
  bacterial growth OD600 (polymyxin B 1 µg/mL): 0.939

Next part.

Row | SMILES | bacterial growth OD600 (polymyxin B 1 µg/mL) | bacterial growth OD600 (polymyxin B 0.75 µg/mL)
17 | Cc1cc(C)n(-c2ccc(NC(=O)C3CCN(C(=O)c4ccoc4)CC3)cc2)n1 | 0.834 | 
18 | COc1ccccc1-n1cc(CNC(=O)CCC2(Cc3ccc(Cl)cc3)CCC(=O)N2)cn1 (stereo unspecified) |  | 0.269
19 | Cc1ccc(OCC2CCCN(C(=O)c3ccc(-n4cc(NC(=O)c5cccnc5)cn4)cc3)C2)cc1 (stereo unspecified) |  | 0.011
20 | COc1cccc(CN2CCCC(C(=O)c3ccc(SC)cc3)C2)c1OC (stereo unspecified) | 0.814 | 
21 | Cc1cc(C)n(-c2cccc(C(=O)N3CCc4c(cnc(C)c4CNC(=O)c4ccsc4)C3)c2)n1 |  | 0.754
22 | Cc1nonc1CC(=O)NC(C)c1cnn(-c2cccc3ccccc23)c1C (stereo unspecified) | 0.881 | 
23 | Cc1ccc(CNCC2(O)CCCN(Cc3cccc(F)c3F)C2=O)cc1 (stereo unspecified) | 0.899 | 
24 | COCC(=O)N1CCC(Oc2ccc(C(=O)N(C)CCC3CCCCO3)cc2)CC1 (stereo unspecified) | 1.14 | 
25 | O=C(NCc1scnc1-c1ccccc1)C1CCC(=O)N(C2CC2)C1 (stereo unspecified) | 0.969 | 
26 | CSCC(=O)N1CCC(CCC(=O)NCc2cccc(C(F)(F)F)c2)CC1 |  | 0.792
27 | Cc1cc(Cl)c2oc(C(=O)N3CCC(C(=O)N4CCCCC4)CC3)c(C)c2c1 | 0.073 | 
28 | COCCn1c(-c2ccccn2)nc2cc(NC(C)=O)cc(C(=O)NC3CCCc4ccccc43)c21 (stereo unspecified) |  | 0.758
29 | CCc1nccn1CCC(=O)N(C)CC1CCN(CCc2ccccc2F)CC1 | 1.02 | 
30 | COCc1ccc(CN2CCCC(CCC(=O)NCc3ccc(OC)cc3OC)C2)o1 (stereo unspecified) | 0.993 | 
31 | Cn1cc(CN2CCC(C(O)c3nccn3C)CC2)c(-c2cccc(Cl)c2)n1 (stereo unspecified) | 0.746 | 
